Entries after “also recorded” stand apart in the source; their conditions may differ. At least one structure is not confirmed: it was looked up by name or label, or the drawing left a doubt.
Assays:
[1] = tested on: SU-DIPG-XIII FL cells; test: Matrigel invasion assay (Boyden chamber) of DIPG cells; assay type: cell-based, human; settings: inhibitor added to the cells in the top insert, dose curve; 72 hours; vehicle DMSO control
Description: To test for chemoattraction and invasion toward neural precursor cell conditioned media or another candidate chemoattractant, a single-cell suspension of 100,000 DIPG cells in Tumor Stem Media (TSM) base (with B27 (−A) and heparin, without growth factors) was seeded in the top inserts of BioCoat growth factor reduced Matrigel invasion chambers (Corning, Bedford, Mass.), after rehydration of the inserts. Chemoattractant media was added to the bottom of the chamber. All conditions were plated in triplicate. After 72 hours, media was aspirated, and the non-invading cells on top of the layer of Matrigel were scrubbed off. The invading cells were fixed in 4% paraformaldehyde and then stained with 0.1% crystal violet in 10% methanol in distilled water. The number of invading cells was quantified by the intensity of the crystal violet dye on the invading side of the Matrigel. The dye was collected in 10% acetic acid, and absorbance was measured at 595 nm.
To test the ROCK or HSP90 inhibitors in the Matrigel invasion assay, the inhibitors were added to the suspension of glioma cells in TSM base (with B27 (−A) and heparin) seeded in the top inserts at the appropriate concentrations, and neural precursor cell conditioned media was plated in the bottom chambers. The rest of the procedure was performed as described above.

[2] = tested on: SU-DIPG-XIII FL cells; test: CellTiter-Glo cell viability assay; assay type: cell-based, human; settings: increasing doses of inhibitor; 72 hours
Description: To assess cell viability, 5,000 DIPG cells per well were seeded in base media or full growth media in a 96-well plate. Inhibitors were added at the appropriate concentrations. After 72 hours, CellTiter-Glo reagent 2.0 was added at a 1:1 ratio, and cells were lysed. Luminescence was measured after stabilization of signal for 10 minutes at room temperature.

[3] = tested on: SU-DIPG-XIII FL cells; test: 17-AAG treatment of orthotopically xenografted mice, SVZ invasion by stereological cell counts; assay type: in vivo, NSG mice; settings: 50 mg/kg 17-AAG 5 days per week; 8 weeks following xenograft; vs vehicle

Question: Which results are given for `C=CCNC1=C2C[C@@H](C)C[C@H](OC)[C@H](O)[C@@H](C)/C=C(\C)[C@H](OC(N)=O)[C@@H](OC)/C=C\C=C(/C)C(=O)NC(=CC1=O)C2=O` [17-AAG, tanespimycin]?
Answer: DIPG invasion toward SVZ hNPC CM [1]: decreased invasion toward SVZ hNPC CM at high doses; cell viability of DIPG cells [2]: decreased DIPG cell viability; number of DIPG cells invading the SVZ [3]: did not find a difference in SVZ invasion; also recorded: no difference in the number of DIPG cells invading the SVZ
